Reference: publication PMC6521544
These are yes or no findings as the source states them, for the method shown. Binding seen in cells or lysates may run through a third protein. Some binding calls cover weakened binding; strength is not graded here. Sequences can lack the tags named with a protein.

Amino acid sequences for entries named in this document (tags omitted).
UniProt P62136: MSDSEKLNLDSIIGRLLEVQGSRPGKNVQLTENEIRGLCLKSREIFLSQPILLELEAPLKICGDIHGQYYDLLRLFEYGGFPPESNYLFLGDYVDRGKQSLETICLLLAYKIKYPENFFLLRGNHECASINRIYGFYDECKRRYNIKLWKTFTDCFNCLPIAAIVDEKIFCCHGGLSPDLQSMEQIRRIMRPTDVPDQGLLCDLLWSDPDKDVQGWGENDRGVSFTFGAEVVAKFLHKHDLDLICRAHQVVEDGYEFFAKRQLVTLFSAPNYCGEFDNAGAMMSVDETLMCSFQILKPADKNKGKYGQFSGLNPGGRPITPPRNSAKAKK

Legend:
[1] = biological target: T1, Migration and invasion inhibitory protein (MIIP), HA-tagged (UniProt Q5JXC2); assay: co-IP; LNCaP-HA-MIIP stable cells transfected with pmCherry-C1-PP1α; lysis in 30 mM Tris pH 7.5, 150 mM NaCl, 1% Triton X-100; immunoprecipitation with anti-HA, 4 °C; immunoblot with anti-PP1α
T1 sequence: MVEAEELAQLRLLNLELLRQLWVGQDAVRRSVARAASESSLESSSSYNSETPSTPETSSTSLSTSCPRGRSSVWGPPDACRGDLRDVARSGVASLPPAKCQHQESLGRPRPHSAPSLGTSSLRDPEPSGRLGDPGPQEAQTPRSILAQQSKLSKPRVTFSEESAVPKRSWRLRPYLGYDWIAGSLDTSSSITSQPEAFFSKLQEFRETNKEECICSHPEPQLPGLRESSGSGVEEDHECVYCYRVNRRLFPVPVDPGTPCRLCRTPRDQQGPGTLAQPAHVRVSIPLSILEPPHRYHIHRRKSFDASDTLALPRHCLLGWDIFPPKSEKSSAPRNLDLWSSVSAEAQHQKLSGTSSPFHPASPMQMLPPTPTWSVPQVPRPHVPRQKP

[2] = biological target: T1, Migration and invasion inhibitory protein (MIIP), HA-tagged; assay: co-IP; HEK-293T cells co-transfected with pLEX-HA-MIIP and pmCherry-C1-PP1α; lysis in 30 mM Tris pH 7.5, 150 mM NaCl, 1% Triton X-100; immunoprecipitation with anti-HA (mouse IgG as control), 4 °C; immunoblot with anti-PP1α
[3] = biological target: T2, MIIP∆C, FLAG-tagged (MIIP N-terminal 1-219 residues) (UniProt Q5JXC2); assay: co-IP; HEK-293T cells co-transfected with pmCherry-C1-PP1α and pFLAG-CMV4-MIIP∆C or pFLAG-CMV4-MIIP∆N; lysis in 30 mM Tris pH 7.5, 150 mM NaCl, 1% Triton X-100; immunoprecipitation with anti-FLAG, 4 °C; immunoblot with anti-PP1α
T2 sequence: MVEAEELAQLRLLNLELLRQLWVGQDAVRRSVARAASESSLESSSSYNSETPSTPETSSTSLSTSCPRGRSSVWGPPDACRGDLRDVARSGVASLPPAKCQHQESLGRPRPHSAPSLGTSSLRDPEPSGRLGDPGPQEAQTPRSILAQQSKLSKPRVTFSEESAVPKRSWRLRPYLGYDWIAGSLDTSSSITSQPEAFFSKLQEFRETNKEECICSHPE

[4] = biological target: T3, MIIP∆N, FLAG-tagged (MIIP C-terminal 220-388 residues) (UniProt Q5JXC2); assay: as above
T3 sequence: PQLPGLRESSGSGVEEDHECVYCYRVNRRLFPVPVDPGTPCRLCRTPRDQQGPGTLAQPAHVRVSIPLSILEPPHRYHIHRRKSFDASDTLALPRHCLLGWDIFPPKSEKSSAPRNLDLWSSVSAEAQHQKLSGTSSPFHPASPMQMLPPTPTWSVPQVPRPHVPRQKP

binding [1]: binds
binding [2]: binds
binding [3]: no binding
binding [4]: binds
Substance: Serine/threonine protein phosphatase 1α (PP1α), mCherry fusion (from UniProt P62136 1-330) (enzyme)
